Reference: the supplement of paper PMC5949888
Most values lie at the floor of the assay. Slopes are relative: functional sequences can read slightly below zero.

These substances were tested on Saccharomyces cerevisiae PS128 hsf1 delta, HSF1(1-493) fusion (assay: growth estimate (transactivation domain function in HSF1 fusion, heat-shock survival) (a.u. (slope of normalised read count over time)); higher = stronger growth at 37°C, i.e. more transactivation activity). Conditions: library: random library.

Which growth estimate does the source give for TRGRYTAFGGTLDVSRLNHE here?
Its growth estimate is < -0.25.

How did the growth estimate turn out when MFTKGLDGRLRPKRHEGAWW was run?
Its growth estimate is < -0.25.

Which growth estimate does the source give for SGNAKECFRHGLFVIRVEAA here?
The growth estimate was < -0.25.

How did the growth estimate turn out when FKSCE was run?
The growth estimate was < -0.25.

Which growth estimate does the source give for MCGIIAIQSSP here?
Its growth estimate is < -0.25.

How did the growth estimate turn out when RST was run?
Its growth estimate is < -0.25.

Which growth estimate does the source give for WESPSQVS here?
The growth estimate was < -0.25.

Which growth estimate does the source give for TALRYCIGVTRASKLVPGYG here?
Its growth estimate is < -0.25.

DERSLNAASVTTHNDHSKLR was tested. Which growth estimate did it give?
Its growth estimate is < -0.25.

How did the growth estimate turn out when GRLFWAFRRYYMANPVSRQC was run?
Its growth estimate is < -0.25.

SDVRLGPVEYLAVAYRRRWF was tested. Which growth estimate did it give?
Its growth estimate is < -0.25.

CKRSFD was tested. Which growth estimate did it give?
Its growth estimate is < -0.25.

For RIYR, which growth estimate is on record?
The growth estimate was < -0.25.

How did the growth estimate turn out when RALPSY was run?
The growth estimate was < -0.25.

With SMTPLPVTLRLFVRRLDLYT as the substance, how does the growth estimate read?
Its growth estimate is < -0.25.

For RVFVARPPRLRNCIWP, which growth estimate is on record?
Its growth estimate is < -0.25.

With LFRYRQGRGVARDTTA as the substance, how does the growth estimate read?
The growth estimate was < -0.25.

Which growth estimate does the source give for AMRCVLPFDSRTMTYWNVRL here?
The growth estimate was < -0.25.

With RYCPNAPKPVRCCCANDIRG as the substance, how does the growth estimate read?
The growth estimate was < -0.25.

With RGKGLGPGRGTGAYMVNYWP as the substance, how does the growth estimate read?
Its growth estimate is < -0.25.

PRNFTAHHGGARYGFEVARK was tested. Which growth estimate did it give?
Its growth estimate is -0.19.

With KCY as the substance, how does the growth estimate read?
The growth estimate was < -0.25.

For RFAAVGESCAYSGGYRT, which growth estimate is on record?
Its growth estimate is < -0.25.

How did the growth estimate turn out when AVCA was run?
The growth estimate was < -0.25.

For TVQCCNGESGLQ, which growth estimate is on record?
The growth estimate was < -0.25.

With LRVS as the substance, how does the growth estimate read?
Its growth estimate is < -0.25.

Which growth estimate does the source give for SLPRCITSIDQGSALPFVPV here?
Its growth estimate is < -0.25.

How did the growth estimate turn out when PRPGPWLVWVRQPWVRLPLC was run?
Its growth estimate is -0.21.

ARREEKIRNSVGILVWIHRQ was tested. Which growth estimate did it give?
Its growth estimate is < -0.25.

How did the growth estimate turn out when DSPVTET was run?
The growth estimate was < -0.25.

How did the growth estimate turn out when ERT was run?
The growth estimate was < -0.25.

How did the growth estimate turn out when GVKSLAPPTGRWFHGAKLWG was run?
Its growth estimate is < -0.25.

How did the growth estimate turn out when RVASLEFRIGPPCAVFRKL was run?
Its growth estimate is < -0.25.

How did the growth estimate turn out when RNFVTNRLLPFRTGIKTYDA was run?
Its growth estimate is < -0.25.

With GASIIARLNVAKPKRRGRIE as the substance, how does the growth estimate read?
The growth estimate was < -0.25.

Which growth estimate does the source give for SLCLSLLVVPECLCR here?
The growth estimate was < -0.25.

For SSSVVFELVDVID, which growth estimate is on record?
The growth estimate was < -0.25.

IGIRESVAHCGAFTARGELA was tested. Which growth estimate did it give?
The growth estimate was < -0.25.

With ICRSSPGRQSRLCVE as the substance, how does the growth estimate read?
Its growth estimate is < -0.25.

With KRFEQSACSHLLRGSSLGER as the substance, how does the growth estimate read?
The growth estimate was < -0.25.

With STTRHGML as the substance, how does the growth estimate read?
Its growth estimate is < -0.25.

KGVWVDGTASSGRYRNKYPE was tested. Which growth estimate did it give?
The growth estimate was 0.0553.

For ASILWRGHVFWRSYMVLTAL, which growth estimate is on record?
The growth estimate was < -0.25.

For LGRRESAASCGRIFAN, which growth estimate is on record?
The growth estimate was -0.241.

For PVLSILPSRVRVPKDEFSLN, which growth estimate is on record?
Its growth estimate is < -0.25.

Which growth estimate does the source give for WNHICSEGGAVLLSV here?
The growth estimate was < -0.25.

With ETGGTRDICVFHRSVPLLNS as the substance, how does the growth estimate read?
The growth estimate was < -0.25.

Which growth estimate does the source give for VRIGYRGNQ here?
The growth estimate was < -0.25.

TIPTGRVLFQERRDVDETP was tested. Which growth estimate did it give?
The growth estimate was < -0.25.

Which growth estimate does the source give for CEPGSGRGLNMRTRPSRL here?
Its growth estimate is < -0.25.

For FEGRTGPASLIDYDRSYNSR, which growth estimate is on record?
Its growth estimate is < -0.25.

For RQSSECVRFHGRLAPRRRTG, which growth estimate is on record?
Its growth estimate is < -0.25.

For SGTWEV, which growth estimate is on record?
Its growth estimate is < -0.25.

With TSGVSAGAENRKLLNDWDFR as the substance, how does the growth estimate read?
The growth estimate was < -0.25.

For GRLSLDAPAY, which growth estimate is on record?
The growth estimate was < -0.25.

Which growth estimate does the source give for DEYSVFRPWRFMM here?
Its growth estimate is -0.235.

Which growth estimate does the source give for FRRGLGIRARGCVSNAGKL here?
Its growth estimate is < -0.25.

For SKHDSCLWRKKCIGLQG, which growth estimate is on record?
The growth estimate was < -0.25.

LGNRQCNQASDALKSPVLVL was tested. Which growth estimate did it give?
The growth estimate was < -0.25.

With VQVC as the substance, how does the growth estimate read?
The growth estimate was < -0.25.

VMLAVIWGRLGHPL was tested. Which growth estimate did it give?
Its growth estimate is < -0.25.

How did the growth estimate turn out when SGKKKHTFYSAHLRRLLYQD was run?
Its growth estimate is < -0.25.

How did the growth estimate turn out when SQQFVSIARRSG was run?
The growth estimate was < -0.25.

For GTGVIATMFVSSGAGVRVRV, which growth estimate is on record?
Its growth estimate is < -0.25.

With LQSTPQNDAAVSCGHARQFE as the substance, how does the growth estimate read?
Its growth estimate is < -0.25.

For RSAYGRSHRCTASNCSSCLY, which growth estimate is on record?
The growth estimate was < -0.25.

For GNFDTTSRLYLLSSRQR, which growth estimate is on record?
Its growth estimate is < -0.25.

GGGGDIRAGDP was tested. Which growth estimate did it give?
Its growth estimate is < -0.25.

How did the growth estimate turn out when TDLLNG was run?
The growth estimate was < -0.25.

With HRANAMFWP as the substance, how does the growth estimate read?
The growth estimate was < -0.25.

Which growth estimate does the source give for RGDGHGV here?
Its growth estimate is < -0.25.

For VRSQDKPGDNRN, which growth estimate is on record?
The growth estimate was < -0.25.

With TLERGTEIVFWQRRQSLNSV as the substance, how does the growth estimate read?
The growth estimate was < -0.25.
